Among the test systems are C. auris AR-384; C. auris AR-386; C. auris AR-387.
Holding throughout (test): growth relative to vehicle control (OD600 ratio) (fraction); higher = less inhibition
Common to all, as to details: 24 h

Where a name gives a salt, the structure may show the parent alone. The list shows a part of the results. Single values are uncertain, as repeats are few or missing.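 The strains were three CDC resistance-bank clinical C. auris isolates from clades III, IV and I, cultured in RPMI-1640 at 35°C. Growth was background-corrected OD600 versus vehicle-only wells on the same plate. A hit needed >50% inhibition in two or more strains plus a plate-corrected B-score exceeding 0.1.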

Turning to `CC1=Nc2ccc(Cl)cc2S(=O)(=O)N1` [Diazoxide], the growth in the test on C. auris AR-384 (1 µM) was determined as 0.93; in the test on C. auris AR-384 (10 µM) it was 0.93; with C. auris AR-386 (1 µM), 0.95; in the test with C. auris AR-386 (10 µM) it was 1.12; with C. auris AR-387 (1 µM), 1.18; with C. auris AR-387 (10 µM), 1.16.
Regarding `OC(c1cc(C(F)(F)F)nc2c(C(F)(F)F)cccc12)C1CCCCN1` (stereo not drawn) [Mefloquine HCl], the growth came to 0.92 in the test on C. auris AR-384 (1 µM); 0.91 in the test with C. auris AR-384 (10 µM); 0.81 in the test with C. auris AR-386 (1 µM); 0.74 in the test on C. auris AR-386 (10 µM); 1.03 in the test on C. auris AR-387 (1 µM); 0.66 in the test on C. auris AR-387 (10 µM).
Consider `Cc1ccc(NC(=O)c2ccc(CN3CCN(C)CC3)cc2)cc1Nc1nc(-c2cccnc2)cs1` [Masitinib (AB1010)], for which the growth amounted to 1.05 in the test with C. auris AR-384 (1 µM); 0.93 with C. auris AR-384 (10 µM); 1.04 in the test on C. auris AR-386 (1 µM); 1.23 in the test on C. auris AR-386 (10 µM); 0.93 in the test on C. auris AR-387 (1 µM); 1.07 with C. auris AR-387 (10 µM).
Turning to `Cc1c(F)cc(C(=O)NC2CC2)cc1-c1ccc(C(=O)NCC(C)(C)C)cn1`, the growth in the test on C. auris AR-384 (1 µM) was determined as 1.04; in the test on C. auris AR-384 (10 µM), 1.44; in the test on C. auris AR-386 (1 µM), 1.05; in the test with C. auris AR-386 (10 µM), 1.15; in the test with C. auris AR-387 (1 µM), 1.03; in the test with C. auris AR-387 (10 µM), 1.28.
For the compound `COc1cc(Nc2ncc(F)c(Nc3ccc4c(n3)N(COP(=O)(O)O)C(=O)C(C)(C)O4)n2)cc(OC)c1OC` [R788 (Fostamatinib) Disodium], the growth with C. auris AR-384 (1 µM) is 0.82; in the test on C. auris AR-384 (10 µM), 0.8; in the test with C. auris AR-386 (1 µM) it was 0.8; in the test with C. auris AR-386 (10 µM), 0.74; with C. auris AR-387 (1 µM) it was 0.76; in the test with C. auris AR-387 (10 µM), 1.03.
Turning to `C1=N/C2=N/c3ccc(OCCN4CCCC4)c(c3)COC/C=C/COCc3cccc(c3)C(=C1)N2` [Pacritinib (SB1518)], the growth with C. auris AR-384 (1 µM) was found to be 0.82; in the test on C. auris AR-384 (10 µM) it was 0.76; in the test on C. auris AR-386 (1 µM), 0.85; in the test with C. auris AR-386 (10 µM), 0.61; with C. auris AR-387 (1 µM), 0.82; with C. auris AR-387 (10 µM), 0.98.
For the compound `CN1CCC(=C2c3ccccc3CC(=O)c3sccc32)CC1` [Ketotifen Fumarate], the growth in the test with C. auris AR-384 (1 µM) worked out at 0.99; in the test with C. auris AR-384 (10 µM) it was 1.04; with C. auris AR-386 (1 µM), 1; in the test with C. auris AR-386 (10 µM) it was 1.08; with C. auris AR-387 (1 µM), 1.14; in the test with C. auris AR-387 (10 µM), 1.24.
Take `Cc1ccc(NC(=O)c2ccc(CN3CCN(C)CC3)cc2)cc1Nc1nccc(-c2cccnc2)n1` [Imatinib (STI571)]: the growth with C. auris AR-384 (1 µM) came out at 0.89; in the test with C. auris AR-384 (10 µM) it was 1.06; in the test on C. auris AR-386 (1 µM), 1.21; in the test on C. auris AR-386 (10 µM), 1.06; in the test with C. auris AR-387 (1 µM) it was 1.09; in the test with C. auris AR-387 (10 µM), 0.95.
As for `COc1cc(NS(=O)(=O)c2ccc(N)cc2)nc(OC)n1` [Sulphadimethoxine], the growth in the test on C. auris AR-384 (1 µM) was 0.95; in the test on C. auris AR-384 (10 µM), 0.92; with C. auris AR-386 (1 µM), 0.74; in the test with C. auris AR-386 (10 µM), 1.14; in the test on C. auris AR-387 (1 µM), 0.97; in the test on C. auris AR-387 (10 µM) it was 0.96.
For the compound `Cc1cnc(C(=O)O)c[n+]1[O-]` [Acipimox], the growth in the test with C. auris AR-384 (1 µM) was determined as 0.72; with C. auris AR-384 (10 µM) it was 0.84; in the test with C. auris AR-386 (1 µM), 0.82; in the test on C. auris AR-386 (10 µM), 0.63; with C. auris AR-387 (1 µM) it was 0.66; in the test with C. auris AR-387 (10 µM) it was 0.99.
On to `NS(=O)(=O)c1cc2c(cc1Cl)NC(C(Cl)Cl)NS2(=O)=O` (stereo not drawn) [Trichlormethiazide], for which the growth came to 1 with C. auris AR-384 (1 µM); 0.58 with C. auris AR-384 (10 µM); 1.11 with C. auris AR-386 (1 µM); 1.47 in the test with C. auris AR-386 (10 µM); 1.02 with C. auris AR-387 (1 µM); 1 in the test on C. auris AR-387 (10 µM).
Regarding `Cn1ncc(Cl)c1-c1cc(C(=O)N[C@H](CN)Cc2ccc(F)c(F)c2)oc1Cl`, the growth in the test with C. auris AR-384 (1 µM) was found to be 0.8; in the test on C. auris AR-384 (10 µM), 0.76; in the test on C. auris AR-386 (1 µM) it was 1.09; in the test with C. auris AR-386 (10 µM), 0.91; with C. auris AR-387 (1 µM), 0.64; in the test on C. auris AR-387 (10 µM), 0.9.
Turning to `O[C@@H](COc1cccc2ncccc12)CN1CCN(C2c3ccccc3[C@@H]3[C@H](c4ccccc42)C3(F)F)CC1` (stereo partly drawn), the growth in the test on C. auris AR-384 (1 µM) was 0.81; in the test with C. auris AR-384 (10 µM) it was 0.93; with C. auris AR-386 (1 µM), 0.82; with C. auris AR-386 (10 µM) it was 0.86; with C. auris AR-387 (1 µM) it was 0.82; in the test on C. auris AR-387 (10 µM), 1.07.
Take `CC(C)n1c(/C=C/C(O)CC(O)CC(=O)O)c(-c2ccc(F)cc2)c2ccccc21` (stereo not drawn) [Fluvastatin Sodium]: the growth in the test on C. auris AR-384 (1 µM) was found to be 0.76; with C. auris AR-384 (10 µM) it was 0.84; in the test with C. auris AR-386 (1 µM), 0.66; in the test on C. auris AR-386 (10 µM), 1.04; with C. auris AR-387 (1 µM), 0.74; in the test on C. auris AR-387 (10 µM), 0.68.
Regarding `CO/N=C(\C(=O)N[C@@H]1C(=O)N2C(C(=O)O)=C(CSc3nnnn3C)CS[C@H]12)c1csc(N)n1` [Cefmenoxime hydrochloride], the growth in the test on C. auris AR-384 (1 µM) was found to be 1.08; with C. auris AR-384 (10 µM) it was 1.09; with C. auris AR-386 (1 µM), 1.15; with C. auris AR-386 (10 µM) it was 0.77; in the test on C. auris AR-387 (1 µM), 1.19; in the test on C. auris AR-387 (10 µM), 1.33.
`O=NN(CCCl)C(=O)NCCCl` [Carmustine]: the growth in the test with C. auris AR-384 (1 µM) is 0.69; in the test with C. auris AR-384 (10 µM), 0.66; in the test with C. auris AR-386 (1 µM) it was 0.74; in the test with C. auris AR-386 (10 µM), 0.94; in the test on C. auris AR-387 (1 µM), 0.69; in the test on C. auris AR-387 (10 µM) it was 0.77.
For the compound `CN(C)CCC=C1c2ccccc2COc2ccccc21` [Doxepin HCl], the growth in the test with C. auris AR-384 (1 µM) stood at 1.26; in the test with C. auris AR-384 (10 µM), 1.32; in the test with C. auris AR-386 (1 µM) it was 1.01; in the test on C. auris AR-386 (10 µM), 1.06; in the test with C. auris AR-387 (1 µM) it was 1.11; in the test on C. auris AR-387 (10 µM), 1.39.
As to `COc1ccc(C(Cl)=C(c2ccc(OC)cc2)c2ccc(OC)cc2)cc1` [Chlorotrianisene], the growth with C. auris AR-384 (1 µM) stood at 0.84; with C. auris AR-384 (10 µM), 0.91; in the test on C. auris AR-386 (1 µM) it was 0.89; in the test with C. auris AR-386 (10 µM) it was 1.06; with C. auris AR-387 (1 µM) it was 0.64; with C. auris AR-387 (10 µM), 0.8.
For `CN(C)CCN(Cc1ccccc1)c1ccccn1` [Tripelennamine HCl], the growth in the test with C. auris AR-384 (1 µM) worked out at 0.98; in the test on C. auris AR-384 (10 µM), 1.36; in the test on C. auris AR-386 (1 µM), 1.01; in the test with C. auris AR-386 (10 µM), 0.91; with C. auris AR-387 (1 µM) it was 0.84; with C. auris AR-387 (10 µM) it was 1.09.
Turning to `COc1cc(C(=O)O)ccc1NC(=O)[C@@H]1N[C@@H](CC(C)(C)C)[C@](C#N)(c2ccc(Cl)cc2F)[C@H]1c1cccc(Cl)c1F` [Idasanutlin (RG-7388)], the growth in the test with C. auris AR-384 (1 µM) stood at 0.98; in the test with C. auris AR-384 (10 µM), 0.38; in the test with C. auris AR-386 (1 µM), 0.62; in the test on C. auris AR-386 (10 µM), 0.41; with C. auris AR-387 (1 µM) it was 0.63; with C. auris AR-387 (10 µM), 0.49.
In the case of `CCCCNC(=O)NS(=O)(=O)c1ccc(C)cc1` [Tolbutamide], the growth in the test on C. auris AR-384 (1 µM) stood at 1.05; in the test on C. auris AR-384 (10 µM), 1.2; in the test with C. auris AR-386 (1 µM) it was 1.09; in the test on C. auris AR-386 (10 µM), 1.11; with C. auris AR-387 (1 µM), 1.43; with C. auris AR-387 (10 µM) it was 1.29.
For the compound `C[C@H](NC(=O)C(=O)Nc1ccccc1C(C)(C)C)C(=O)N[C@@H](CC(=O)O)C(=O)COc1c(F)c(F)cc(F)c1F` [Emricasan], the growth amounted to 0.99 with C. auris AR-384 (1 µM); 0.72 in the test with C. auris AR-384 (10 µM); 0.77 in the test on C. auris AR-386 (1 µM); 0.7 with C. auris AR-386 (10 µM); 0.78 in the test on C. auris AR-387 (1 µM); 0.75 in the test on C. auris AR-387 (10 µM).
With `c1ccc(C2CN3CCSC3=N2)cc1` (single isomer, unassigned; (-)) [(-)-Tetramisole], the growth with C. auris AR-384 (1 µM) was 0.77; with C. auris AR-384 (10 µM), 0.51; with C. auris AR-386 (1 µM), 0.7; in the test on C. auris AR-386 (10 µM), 0.75; with C. auris AR-387 (1 µM), 0.65; in the test on C. auris AR-387 (10 µM), 0.83.

Source of the values: the supplement of paper PMC10470496.
